Test results from publication PMC5111114.
No constants are given. Whether binding was seen depends on the method and setting. In cells and extracts the contact can be indirect. A yes stands for co-enrichment or nearness to the bait. Other partners may have been found.

Amino acid sequences for entries named in this document (tags omitted). A change or cut given only in a name is not applied to a line headed by its entry.
UniProt P12956: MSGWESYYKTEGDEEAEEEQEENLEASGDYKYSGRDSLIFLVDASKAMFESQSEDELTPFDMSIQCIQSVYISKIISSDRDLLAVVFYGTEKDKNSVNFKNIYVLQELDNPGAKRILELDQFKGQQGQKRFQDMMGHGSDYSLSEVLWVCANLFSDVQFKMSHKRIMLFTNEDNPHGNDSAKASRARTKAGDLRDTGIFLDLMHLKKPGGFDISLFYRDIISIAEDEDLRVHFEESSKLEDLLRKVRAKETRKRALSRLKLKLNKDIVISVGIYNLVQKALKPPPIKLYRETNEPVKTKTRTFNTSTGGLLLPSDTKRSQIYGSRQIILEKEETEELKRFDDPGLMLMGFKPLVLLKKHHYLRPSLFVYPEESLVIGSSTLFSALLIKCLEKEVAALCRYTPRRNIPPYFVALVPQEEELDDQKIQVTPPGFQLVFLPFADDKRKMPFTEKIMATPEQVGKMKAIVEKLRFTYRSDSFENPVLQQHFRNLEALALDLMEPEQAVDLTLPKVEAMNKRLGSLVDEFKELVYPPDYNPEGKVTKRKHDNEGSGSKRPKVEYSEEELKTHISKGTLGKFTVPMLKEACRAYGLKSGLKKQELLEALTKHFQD
UniProt O70126: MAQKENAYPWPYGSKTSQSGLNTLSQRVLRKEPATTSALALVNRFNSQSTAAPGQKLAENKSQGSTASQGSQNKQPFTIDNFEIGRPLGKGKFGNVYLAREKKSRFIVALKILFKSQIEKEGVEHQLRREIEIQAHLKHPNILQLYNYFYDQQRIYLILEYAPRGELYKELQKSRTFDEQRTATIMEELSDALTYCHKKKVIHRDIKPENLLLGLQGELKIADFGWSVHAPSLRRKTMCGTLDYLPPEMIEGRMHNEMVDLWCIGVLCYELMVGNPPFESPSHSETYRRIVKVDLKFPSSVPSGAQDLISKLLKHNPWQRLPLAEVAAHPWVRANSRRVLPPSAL

Biological target: biotin-conjugated Ku70 S155D peptide (loop region surrounding S155, aa 145 to 163) (UniProt P12956)
Assay: affinity purification with mass spectrometry; biotin-conjugated Ku70 peptides (aa 145-163, S155A or S155D) incubated with MEF nuclear extracts from cells untreated or subjected to 10 Gy of IR; pulled down with streptavidin beads; factors identified by mass spectrometry; only the target purified

binding: binds
Substance: Aurora B (endogenous, mouse embryonic fibroblasts) (from UniProt O70126 1-345) (enzyme)
